Data reported in paper PMC6925144, “A prospective compound screening contest identified broader inhibitors for Sirtuin 1” (Scientific Reports, 2019).
Whole data set: some 3,200 compounds, median “TSA(with NAD+) / Primary screening (TSA) / delta Tm (K)” near -0.04, cut for the highest 2% near 0.37. The list shows a part of the results. Peptide text beside a SMILES is read from it.

Sequences of proteins named here, by UniProt entry; tags and fusion partners are left off. Residues count along the entry.
UniProt Q96EB6, 2-747 limits assumed: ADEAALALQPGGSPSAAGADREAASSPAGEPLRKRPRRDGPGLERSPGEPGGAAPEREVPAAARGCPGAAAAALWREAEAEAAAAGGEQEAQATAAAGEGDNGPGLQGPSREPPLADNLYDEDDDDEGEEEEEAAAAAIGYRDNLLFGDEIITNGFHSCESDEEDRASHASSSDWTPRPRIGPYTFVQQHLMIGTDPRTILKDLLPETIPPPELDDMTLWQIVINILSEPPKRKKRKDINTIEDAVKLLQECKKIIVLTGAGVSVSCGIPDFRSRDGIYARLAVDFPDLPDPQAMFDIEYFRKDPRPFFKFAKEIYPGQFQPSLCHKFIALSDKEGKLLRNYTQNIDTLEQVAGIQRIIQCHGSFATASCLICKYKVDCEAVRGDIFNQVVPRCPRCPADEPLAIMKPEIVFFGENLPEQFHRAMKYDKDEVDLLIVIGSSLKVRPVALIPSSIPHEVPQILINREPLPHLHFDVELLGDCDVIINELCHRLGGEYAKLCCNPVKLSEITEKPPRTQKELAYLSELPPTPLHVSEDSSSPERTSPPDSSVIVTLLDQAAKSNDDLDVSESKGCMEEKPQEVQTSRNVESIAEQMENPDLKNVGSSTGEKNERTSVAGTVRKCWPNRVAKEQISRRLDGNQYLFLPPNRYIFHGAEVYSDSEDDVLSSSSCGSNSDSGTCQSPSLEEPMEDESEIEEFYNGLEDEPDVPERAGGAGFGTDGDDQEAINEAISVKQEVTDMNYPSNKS

What follows are compounds tested against NAD-dependent deacetylase Sirtuin 1 (human, UniProt Q96EB6) (assay: primary screen, delta tm). Conditions: 10 µM.
Design: single well (n = 1, as 'the same TSA')
Protocol: A total of 3,192 compounds extracted from the proposed lists were first screened by thermal shift assay (TSA), which determined a melting temperature shift (ΔTm) of Sirtuin 1 upon the addition of a test compound at a concentration of 10 µM (n = 1) with primary hit criteria of ΔTm > 0.45 K or ΔTm < −1.5 K. Primary hits (48 compounds) were retested in the same assay at three concentrations (5, 10, 20 µM, n = 4) for hit confirmation and for dose-dependency check. Secondary hits (41 compounds) were checked their selectivity for Sirtuin 1 based on counterscreening on unrelated protein targets (bovine carbonic anhydrase (CA) and recombinant SH2 domain of hABL1 kinase (ABL1)) at three different concentrations (5, 10, 20 µM, n = 4), which yielded 38 hit compounds, hereafter referred to as TSA hits. The TSA screening above was conducted in the absence of NAD+. As noted, the structure of Sirtuin 1 is different in the presence of NAD+ and substrate. The chemical profile of TSA hits found from the different conditions could be different. […] As a result, 39 TSA hits were found.

SMILES	TSA(with NAD+) / Primary screening (TSA) / delta Tm (K)
CC(C)C(NS(=O)(=O)/C=C/c1ccccc1)C(=O)O (stereo not shown)	-0.01 K
O=c1[nH]c(S)nc2c1cnn2-c1ccccc1	-0.04 K
COc1cccc(C(=O)C2=C(O)C(=O)N(CCCN3CCOCC3)C2c2ccccc2F)c1 (stereo not shown)	-0.02 K
CC(CNCCS(=O)(=O)C(C)(C)C)c1ccccc1 (stereo not shown)	-0.03 K
Cc1noc(C)c1COc1ccc(C(=O)N2CCCC2c2ccc[nH]2)cc1 (stereo not shown)	-0.16 K
COc1ccc(NC(=S)NN)cc1OC	0.11 K
COc1cc(SC)ccc1C(=O)N(Cc1ccccc1)c1ccccc1	-0.16 K
CC(CN)N(C)C (stereo not shown)	-0.32 K
CCN(Cc1cccc(F)c1)C(=O)c1cnc2ccccn2c1=O	-0.11 K
Cc1cccc(C=C2C(=O)NC(=S)NC2=O)c1	-0.02 K
CCC(CC)N(c1ccc(C)c(C)c1)S(=O)(=O)c1cnc2c(c1)c(=O)[nH]c(=O)n2C	-0.13 K
CC(OC(=O)CC1Oc2ccccc2NC1=O)C(=O)Nc1ccc(C(N)=O)cc1 (stereo not shown)	0.02 K
CN(c1ccc(S(N)(=O)=O)cc1)S(=O)(=O)c1cccc(C#N)c1	-0.18 K
Cc1nc(NCc2cncnc2)ccc1I	-0.12 K
CCC(CO)Nc1ncnc2ccsc12 (stereo not shown)	-0.01 K
Cc1ccc(C)c(CN(C)CC(N)=O)c1	-0.05 K
NCCNC1CC1	-0.04 K
O=S(=O)(NC1=NCCC1)c1cccc(NS(=O)(=O)c2ccc(C34CC5CC(CC(C5)C3)C4)cc2)c1	0.09 K
O=C(Nc1cccc(S(=O)(=O)NC2=NCCC2)c1)c1cnc2ccccc2n1	-0.11 K
COc1cc(CN(C)C(=O)c2cccc(C#N)c2)ccc1OCc1ccccc1	-0.13 K
COCCNC(=O)CSc1ccccc1C(=O)Nc1ccc(C(N)=O)cc1	-0.13 K
CC(C)c1ccc(C(NC(=O)c2cccc(C(N)=O)c2)c2cccs2)cc1 (stereo not shown)	-0.05 K
CCS(=O)(=O)NCCC(=O)O	-0.03 K
COc1ccc(NS(=O)(=O)c2cccs2)cc1S(N)(=O)=O	0.01 K

SMILES	TSA(with NAD+) / Primary screening (TSA) / delta Tm (K)
Cc1nc2ccccc2c(C)c1CC(=O)Nc1ccc(N2CCN(Cc3ccccc3)CC2)cc1	-0.01 K
Cc1cc2oc(=O)cc(CN3C(=O)NC4(CCCCC4)C3=O)c2cc1C	-0.18 K
COc1ccc(-c2noc(CN3CCN(c4ncnc5sc6c(c45)CCC(C)C6)CC3)n2)cc1 (stereo not shown)	-0.01 K
Cc1ccc(N(C)S(=O)(=O)c2cccc(C(=O)Nc3ccc(C)cc3C)c2)cc1	-0.13 K
COc1ccc(CN(C(=O)COC(=O)c2ccc(C(N)=O)cc2)C2CC2)cc1	0.03 K
O=C(COC(=O)CN1C(=O)C2CCCCC2C1=O)Nc1cc(C(F)(F)F)ccc1Cl (stereo not shown)	0.05 K
O=C1CC(Cc2ccccc2)C(=O)N1 (stereo not shown)	-0.13 K
CC(=O)NCC(=O)NCC(=O)N(C)C (Ac-Gly-Gly-NMe2)	-0.14 K
CN(c1cccc(Cl)c1)S(=O)(=O)c1cccc(C(=O)Nc2cccc(C#N)c2)c1	0.45 K
CC(Oc1ccc2[nH]c3ccccc3c(=O)c2c1)C(=O)NC(=O)NC12CC3CC(CC(C3)C1)C2 (stereo not shown)	0.29 K
CN(C(=O)Cc1cccc2ccccc12)C1C2CC3CC(C2)CC1C3 (stereo not shown)	-0.28 K
Cc1ccc(N(C)S(=O)(=O)c2cccc(C(=O)Nc3ccc4c(c3)C(=O)N(C)C4=O)c2)cc1	0.89 K
Cc1cc(C)c(NCc2cc(=O)n3ccsc3n2)c(Cl)c1	-0.13 K
NC(=O)c1ccc(NC(=O)c2sccc2S(=O)(=O)N2CCCCC2)cc1	-0.23 K
COc1cccc(-c2nnc(SC3CCCCC3=O)n2-c2ccccc2)c1 (stereo not shown)	-0.03 K
C=CCOc1ccc(C(=O)C2=C(O)C(=O)N(CCCN3CCOCC3)C2c2cccs2)cc1 (stereo not shown)	-0.09 K
Cc1cccc(Oc2ccc(NC(=O)c3cncc(Br)c3)cc2)c1	0.07 K
OCCCNc1ccc2nnc(C(F)(F)F)n2n1	-0.09 K
Cc1nc2c(cnn2-c2ccc(F)cc2)c(=O)[nH]1	-0.06 K
NC(=O)C1CCN(c2ncnc3cc(-c4ccc(Cl)cc4)sc23)C1 (stereo not shown)	-0.09 K
Cc1ccc2c(COC(=O)C(CCS(C)(=O)=O)NC(=O)c3ccccc3)cc(=O)oc2c1 (stereo not shown)	-0.13 K
O=C(CCc1nc2ccccc2o1)N1CCN(C(c2ccc(F)cc2)c2ccc(F)cc2)CC1	-0.01 K
O=C1NC(=S)NC(=O)C1=Cc1ccc(-c2ccc(SC(F)F)cc2)o1	-0.43 K
O=C1NC2(CCOc3ccccc32)C(=O)N1Cc1cccc2ccccc12 (stereo not shown)	-0.11 K

SMILES	TSA(with NAD+) / Primary screening (TSA) / delta Tm (K)
CN(c1ccccc1C(N)=O)S(=O)(=O)c1cccc(C#N)c1	-0.03 K
Cc1cc(C(=O)Nc2ccc3c(c2)OC2(CCCC2)O3)c2ccccc2n1	-0.01 K
Cc1ccc(CCC(=O)Nc2cc(C(N)=O)ccc2N2CCCCC2)cc1Cl	0.06 K
COc1ccc(N(C)S(=O)(=O)c2cccc(C(=O)Nc3ccc(Br)cc3)c2)cc1	1.36 K
Cc1cc(C(=O)COC(=O)C23CC4CC(CC(C4)C2)C3)c(C)n1Cc1ccc2c(c1)OCO2	-0.11 K
CNS(=O)(=O)NCC(=O)O	-0.03 K
CCCC(O)CN (stereo not shown)	-0.15 K
O=C(Nc1ccc(N2CCN(Cc3ccccc3)CC2)cc1)c1oc2ccccc2c1COc1ccccc1	0.09 K
CC(=O)Nc1ccc(S(=O)(=O)N(C)CC(=O)Nc2ccc(C34CC5CC(CC(C5)C3)C4)cc2)cc1	0.18 K
NC(=O)C1CCCC1Nc1nc(C2CC2)ns1 (stereo not shown)	0.03 K
COc1ccc(OCCC(=O)Nc2c(C(N)=O)n[nH]c2C)cc1	0.05 K
CN(Cc1ccc(Cl)s1)c1cc(=O)n2ccccc2n1	-0.18 K
Cc1c(CCC#N)c(Cl)n2c(nc3ccccc32)c1C#N	-0.03 K
NCCCCS(=O)(=O)O	0.01 K
Cn1ncc2c(=O)[nH]c(N3CCC(c4cc5ccccc5[nH]4)CC3)nc21	-0.23 K
COc1ccc2nc(C)cc(N3CCN(S(=O)(=O)/C=C/c4ccccc4)CC3)c2c1	-0.02 K
Cc1ccc(C(=O)CSc2nc3ccsc3c(=O)n2C)s1	-0.01 K
CC(C#N)(NC(=O)COC(=O)c1cc(-c2ccc(O)cc2)nc2ccccc12)C1CC1 (stereo not shown)	0.16 K
O=C(COC(=O)CNC(=O)C12CC3CC(CC(C3)C1)C2)Nc1ccccc1Cc1ccccc1	0.08 K
c1ccc2sc(-c3nc4c5ccccc5ncn4n3)cc2c1	0.01 K
COc1ccc(C(=O)OC(C)C(=O)Nc2ccc(C(N)=O)cc2)c(OC)c1 (stereo not shown)	-0.01 K
Cc1ccc(C(=O)CCC(=O)Nc2cc(C(N)=O)ccc2N2CCCC2)cc1	-0.03 K
Cc1nc(CSc2nncs2)oc1-c1ccc(Cl)cc1	-0.06 K
C=C(C)COCCN	-0.23 K

SMILES	TSA(with NAD+) / Primary screening (TSA) / delta Tm (K)
CCCOc1ccc(C(=O)C2=C(O)C(=O)N(CCCN3CCOCC3)C2c2cccc(OC)c2)cc1 (stereo not shown)	-0.06 K
COc1ccc(C(=O)C2=C(O)C(=O)N(CCCN3CCOCC3)C2c2ccc(N(C)C)cc2)cc1 (stereo not shown)	-0.13 K
CCCCOc1cc(C2NC(N)=Nc3nc4ccccc4n32)ccc1OC (stereo not shown)	-0.22 K
Cc1cncc(CCCN2CCN(c3ccc(C#N)cc3F)CC2)c1	0.09 K
O=c1[nH]cnc2c1cnn2-c1cccc(Cl)c1	-0.13 K
CCOC(=O)c1c(NC(=O)C(C)OC(=O)CNC(=O)c2cc(C)cc(C)c2)sc2c1CCC(C)C2 (stereo not shown)	-0.21 K
CCc1cc2c(N3CCCC(C)C3)ncnc2s1 (stereo not shown)	-0.11 K
COc1cccc(C(=O)C2=C(O)C(=O)N(CCCN3CCOCC3)C2c2ccc(C)cc2)c1 (stereo not shown)	0.02 K
N#Cc1ccccc1CN1CCC(OC(=O)C2=COCC2)CC1	-0.03 K
CCc1nn2c(=O)cc(CN3CCCc4ccccc43)nc2s1	-0.11 K
COc1ccc(N(C)S(=O)(=O)c2cccc(C(=O)Nc3sccc3C#N)c2)cc1	0.28 K
Cc1ccc2[nH]c(C(=O)O)cc2c1	-0.04 K
Cc1ccc2c(c1)CCCN2C(=O)CCn1ncc(=O)c2ccccc21	-0.06 K
O=C(OCc1ccc(COC(=O)c2ccncc2)cc1)c1ccncc1	-0.12 K
COc1ccc(OCC(=O)NCC2(C)CC(NC(=O)COc3ccc(OC)cc3)CC(C)(C)C2)cc1 (stereo not shown)	-0.18 K
O=c1[nH]c(CN(Cc2ccco2)C2CCCC2)nc2c1oc1ccccc12	0.06 K
O=c1[nH]cnc2c1nnn2-c1ccccc1	-0.18 K
Clc1ccc2c(N3CCN(Cc4ccc5c(c4)CCO5)CC3)ncnc2c1	-0.08 K
CCOC(=O)c1ncn(C2CCN(c3ncnc4c(F)cccc34)CC2)c1N	-0.01 K
CCS(=O)(=O)c1ccc(N2CCC(Cc3cccnc3)CC2)cc1	-0.09 K
Cc1ccc2[nH]cc(C(=O)C(F)(F)F)c2c1	-0.02 K
CCCNC(=O)CN1CCN(c2c(C)cnc3ccccc23)CC1	-0.02 K

Structures shown so far containing a furan ring, fused or not, in the order listed:
SMILES	TSA(with NAD+) / Primary screening (TSA) / delta Tm (K)
O=C1NC(=S)NC(=O)C1=Cc1ccc(-c2ccc(SC(F)F)cc2)o1	-0.43 K
O=C(Nc1ccc(N2CCN(Cc3ccccc3)CC2)cc1)c1oc2ccccc2c1COc1ccccc1	0.09 K
O=c1[nH]c(CN(Cc2ccco2)C2CCCC2)nc2c1oc1ccccc12	0.06 K
